Results published in PubChem BioAssay AID1487 (National Center for Advancing Translational Sciences (NCATS), 2009).
Several values for one entry are separate records, joined by “and”; a condition that tells them apart may be missing. Equal values may be shown once. Some of the results follow. Shown are side measurements of this screen, not its main read-out; they come without a call. The list favours compounds with an active or inconclusive main result. Potencies come from curve fits of mixed quality, noted in brackets.

Experiment: qHTS Assay for Modulators of Lamin A Splicing
Conditions: HeLa LMNA splicing GFP/RFP minigene ratio, 48 h
Method in brief: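 Read-out is the ratio of GFP to DsRed2 object intensity, acquired by 488 nm laser-scanning cytometry on HeLa lamin A-EGFP minigene reporter cells. Compound incubation 48 hrs at 37 °C in Opti-MEM with 2% FBS; DMSO 0.5% final.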

[1] = measured here: GFP splicing reporter channel
[2] = measured here: RFP viability control channel

| SMILES | AC50 [1] | AC50 [2] |
| --- | --- | --- |
| O=C(Nc1cccnc1)c1cccc(S(=O)(=O)N2CCCCC2)c1 | 0.112 µM [rising, partial curve] | 0.0447 µM [rising, partial curve] |
| CC1CCN(CCC(=O)N2CCCc3c2c(=O)oc2ccc(O)cc32)CC1 |  | 35.5 µM [rising, single point] |
| O=C(Nc1ccc2c(c1)OCO2)N1CCN(c2ncc(C(F)(F)F)cc2Cl)CC1 |  | 17.8 µM [rising, single point] |
| CN(C)S(=O)(=O)Oc1ccc(C(=O)Nc2ccc([N+](=O)[O-])cc2)cc1 | 3.16 µM [falling, partial curve] | 7.08 µM [falling, partial curve, poor fit] |
| Fc1ccc(-c2noc3ncnc(NCC4CCN(Cc5ccc(Cl)cc5)CC4)c23)cc1 |  | 0.00316 µM [rising, full curve, poor fit] |
| CSc1ccc(-c2nc(CSCC(=O)N3CCOCC3)c(C)o2)cc1 | 0.0794 µM [rising, partial curve] | 3.98 µM [rising, full curve] |
| Cn1c(=O)c2c(nc(Br)n2CCCc2ccccc2)n(C)c1=O | 3.16 µM [rising, partial curve] | 17.8 µM [rising, partial curve] |
| CC1=C(C(=O)OCC(C)C)C(c2ccc(F)cc2)NC(=O)N1 (centres undefined) | 14.1 µM [rising, partial curve, poor fit] |  |
| COc1cc(OC)cc(-c2nnc(SCC(=O)N(Cc3ccccc3)C(C)(C)C)o2)c1 | 11.2 µM [rising, partial curve] | 22.4 µM [rising, single point] |
| CCN1CCN(S(=O)(=O)c2cc(OCC(=O)NC3CCCCC3)c(C)cc2Cl)CC1 | 5.62 µM [rising, partial curve] | 4.47 µM [rising, full curve] |
| OCCn1c(SCCOc2ccccc2F)nc2ccccc21 | 4.47 µM [falling, single point] | 5.62 µM [falling, single point] |
| Cc1cc2nc3c(=O)[nH]c(=O)nc-3n(CC(O)C(O)C(O)CO)c2cc1C (centres undefined) | 501 nM [falling, full curve, poor fit] and 2.24 µM [rising, partial curve, poor fit] | 2 µM [rising, partial curve, poor fit] |
| O=C(CN1CCN(c2nc(-c3ccc(F)cc3)cs2)CC1)Nc1ccc2c(c1)OCO2 |  | 22.4 µM [rising, partial curve] |
| Cc1cc(C)c2nc(N3CCC(C(=O)N4CCCC4)CC3)sc2c1 | 17.8 µM [rising, single point] | 35.5 µM [rising, single point] |
| Cc1ccc(C(=O)Nc2ccc(S(=O)(=O)N3CCc4ccccc4C3)cc2)o1 |  | 35.5 µM [rising, single point] |
| Cc1onc(-c2ccccc2)c1C(=O)Nc1ccc2c(C)cc(=O)oc2c1 |  | 15.8 µM [rising, single point] |
| Cc1ccc(Cn2ccc(NC(=O)c3cc(C(C)C)on3)n2)cc1 |  | 0.794 µM [falling, partial curve, poor fit] |
| O=C(N/N=C/c1c(O)ccc2ccccc12)c1ccc[n+](CCO)c1 | 11.2 µM [falling, partial curve] |  |

Sorted by count of non-hydrogen atoms (low to high): some entries from above

| SMILES | AC50 [1] | AC50 [2] |
| --- | --- | --- |
| Cc1ccc(Cn2ccc(NC(=O)c3cc(C(C)C)on3)n2)cc1 |  | 0.794 µM [falling, partial curve, poor fit] |
| Cc1onc(-c2ccccc2)c1C(=O)Nc1ccc2c(C)cc(=O)oc2c1 |  | 15.8 µM [rising, single point] |
| O=C(CN1CCN(c2nc(-c3ccc(F)cc3)cs2)CC1)Nc1ccc2c(c1)OCO2 |  | 22.4 µM [rising, partial curve] |

More structures.

| SMILES | AC50 [1] | AC50 [2] |
| --- | --- | --- |
| COC(=O)c1cc(=O)n(Cc2ccc3c(c2)OCO3)c(=Nc2ccc(F)cc2)s1 |  | 11.2 µM [rising, single point] |
| FC(F)(F)c1cccc(NC(=S)NC(c2ccccc2)c2ccccc2)c1 |  | 0.355 µM [rising, partial curve, poor fit] |
| Fc1ccc(/C=N/Nc2ncnc3nc[nH]c23)cc1F | 2 µM [falling, full curve, poor fit] |  |
| CCOC(=O)c1cc(-c2ccc(F)cc2)n(CCC(=O)NCCc2ccc(C)cc2)c1C |  | 15.8 µM [rising, single point] |
| Clc1ccc(CNc2nnnn2-c2ccccc2)c(Cl)c1 |  | 28.2 µM [rising, single point] |
| CCc1ccccc1NS(=O)(=O)c1ccc(NC(=O)N2CCCC2)cc1 | 0.447 µM [falling, full curve] | 0.631 µM [falling, full curve] |
| CCc1nn2c(=O)cc(COC(=O)c3ccccc3NC(=O)C3CCCCC3)nc2s1 |  | 35.5 µM [rising, single point] |
| CCCn1c(SCC(N)=O)nc2c(c1=O)C1(CCCC1)Cc1ccccc1-2 | 12.6 µM [rising, single point] | 14.1 µM [rising, single point] |
| N#CC1=C(N)SC(C(=O)c2ccccc2)C1c1cccs1 (centres undefined) |  | 20 µM [rising, partial curve] |
| N#Cc1ccc(-c2csc(NC(=O)/C=C/c3cccs3)n2)cc1 | 1.26 µM [rising, full curve, poor fit] | 0.708 µM [rising, full curve, poor fit] |
| Cc1ccc(S(=O)(=O)N(C)C)cc1NC(=O)COC(=O)/C(=C/c1ccc(F)cc1)c1cccs1 |  | 31.6 µM [rising, single point] |
| Cc1ccc2ccccc2[n+]1CCCS(=O)(=O)[O-] |  | 0.00398 µM [falling, full curve, poor fit] |
| COC(=O)C1=C(Nc2ccc(C)cc2)C=C(C)C(C(=O)OC)C1c1ccc(OC)cc1 (centres undefined) | 25.1 µM [falling, partial curve] |  |
| CC(=O)Nc1ncc(Cc2cc(Cl)ccc2Cl)s1 | 35.5 µM [rising, single point] |  |
| CCCCn1c(O)c(/C=C/C=C/C=Nc2ccccc2)sc1=S | 0.00316 µM [rising, full curve, poor fit] |  |
| CC(C)CC(NS(=O)(=O)c1cc(C(=O)O)ccc1Cl)C(=O)O (centres undefined) | 0.126 µM [falling, full curve, poor fit] |  |
| Nc1nc2c(s1)COc1ccccc1-2 |  | 0.562 µM [falling, full curve] |
| Cc1cccc(CNc2ncnc3ccc(-c4ccc(C(=O)N(C)C)cc4)cc23)c1 | 6.31 µM [falling, partial curve, poor fit] | 0.447 µM [falling, full curve] |
